# In the supplement of paper PMC7858590:
# Values joined by “and” are separate entries in the source; they are usually repeats but may differ in a detail not shown here. Equal entries are not always repeated. ± gives the standard deviation of the averaged measurements. The list shows a part of the results. This data set is noisy: repeats of one test often differ as much as different tests do.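 M-CSF-grown macrophages from blood monocytes pooled across four healthy donors, in an M1-like state, received compounds that had driven resting macrophages M2-like in a first screen. Each Z-score t-tests eccentricity of ~1000 cells per well against same-row DMSO wells. Compounds passing the +6 M2 cutoff, set by standard cytokine controls, count as reprogramming. M1 cutoff: −4.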
# Tested on: human monocyte-derived macrophages (polarized)
# Test: cell shape (eccentricity) Z-score vs DMSO control; macrophage state: M1-polarized (IFNg + TNFa), cytokines removed before treatment; higher = more elongated, M2-like morphology
# Settings: 24 h
SMILES,cell shape (Z-score) (5 µM),cell shape (Z-score) (10 µM)
Nc1nc(Nc2ccccc2)nc2c1ncn2C1OC(CO)C(O)C1O (centres undefined),-1.81 ± 6.4,-13.6 ± 9
Clc1ccc(C(Cn2ccnc2)OCc2ccsc2Cl)c(Cl)c1 (centres undefined),3.98 ± 8.3,1.57 ± 5.8
O=Nc1c(-c2c(O)[nH]c3cc(Br)ccc23)[nH]c2ccccc12,-5.06 ± 9.8,-6.93 ± 6
CC1CNCCN1S(=O)(=O)c1cccc2cnccc12 (centres undefined),-3.89 ± 1.3,0.656 ± 2
CC(C)c1ccccc1Cc1cc(C(=O)Nc2ccc(S(=O)(=O)c3ccccc3C(C)(C)C)cc2)c(O)c(O)c1O,-1.64 ± 3.5,-4.03 ± 0.39
Cc1cc(O)cc(=O)o1,0.185 ± 1.4,-6.58 ± 6.3
C[C@@H](N)[C@H]1CC[C@H](C(=O)Nc2ccncc2)CC1,8.34,9.51
O=C(Nc1ccncc1)c1cc([N+](=O)[O-])ccc1Cl,-0.292 ± 1.1,2.26 ± 3.4
Cc1[nH]c2ccccc2c1CCNCc1ccc(/C=C/C(=O)NO)cc1,9.66,10.4
COc1nccnc1NS(=O)(=O)c1ccc(NC(=O)/C=C/c2ccc([N+](=O)[O-])s2)cc1,-3.81 ± 4.1,-10.9 ± 10
Cc1c(NC(=O)c2cccnc2)c(=O)n(-c2ccccc2)n1C,4.96 ± 11,2.8 ± 8
CCc1cnn2c(NCc3ccc[n+]([O-])c3)cc(N3CCCC[C@H]3CCO)nc12,-1.56 ± 6,-5.36 ± 7.2
CCCCCCN(CCCCCC)C(=O)Cc1c(-c2ccc(F)cc2)[nH]c2ccccc12,2.07 ± 1.3,0.252 ± 1.1
O=C(Nc1ccc(OC(F)(F)F)cc1)c1sccc1NCc1ccnc2ccccc12,-3.65 ± 2.8,-3.45 ± 3.3
CC(C)(C)c1cc(C(=O)/C=C/c2ccc(C(=O)O)cc2)cc(C(C)(C)C)c1,-1.07 ± 2.1,-7.11 ± 4.6
O=c1cc(-c2ccccc2F)[nH]c2cc3c(cc12)OCO3,-1.9 ± 2.9,-0.73 ± 0.76
CCCCCc1c2c(cc(O)c1C(=O)O)OC(=O)c1c(cc(OC)cc1C(=O)CCCC)O2,-0.984 ± 2.9,-3.58 ± 6.4
C=C1CC[C@@H]2[C@](C)(CO[C@@H]3O[C@H](CO)[C@@H](O)[C@H](O)[C@H]3O)CCC[C@@]2(C)[C@@H]1CCC1=CCOC1=O,-0.596 ± 1.5,0.607 ± 3.2
CC1=C(/C=C/C(C)=C/C=C/C(C)=C/C(=O)O)C(C)(C)CCC1,-0.682 ± 3.4,-1.2 ± 2.6
O=C(/C=C/c1cccc(S(=O)(=O)Nc2ccccc2)c1)NO,-0.151 ± 0.12,-2.18 ± 3.1
N[C@@H](CC(=O)N1CCn2c(nnc2C(F)(F)F)C1)Cc1cc(F)c(F)cc1F,2.4 ± 4.4,1.27 ± 7.8
CC[C@H](Nc1ncnc2[nH]cnc12)c1nc2cccc(F)c2c(=O)n1-c1ccccc1,-0.284 ± 7.8,-0.758 ± 8.8
CNC(=O)c1ccccc1Sc1ccc2c(/C=C/c3ccccn3)n[nH]c2c1,9.86 and 6.43,12.6 and 6.21
O=C1Cc2c([nH]c3ccc([N+](=O)[O-])cc23)-c2ccccc2N1,-3.97 ± 0.04,0.19 ± 1.9

SMILES,cell shape (Z-score) (5 µM),cell shape (Z-score) (10 µM)
CC1(C)C(=O)C=CC2(C)C1C=CC1(C)C2CCC2(C)C(c3ccoc3)OC(=O)C3OC312 (centres undefined),0.464 ± 4.7,-5.16 ± 5
COc1cc2c(cc1-c1c(C)noc1C)ncc1[nH]c(=O)n([C@H](C)c3ccccn3)c12,-1.76 ± 5.9,1.11 ± 4.1
COc1cc(OC)c(/C=C/S(=O)(=O)Cc2ccc(OC)c(NCC(=O)O)c2)c(OC)c1,-9.85 ± 4.4,-2.14 ± 0.53
Cn1cncc1[C@@](N)(c1ccc(Cl)cc1)c1ccc2c(c1)c(-c1cccc(Cl)c1)cc(=O)n2C,0.662 ± 0.2,1.41 ± 4.6
Cc1nc(Nc2ncc(C(=O)Nc3c(C)cccc3Cl)s2)cc(N2CCN(CCO)CC2)n1,3.92,8.02 ± 0.7
Cc1ccc2c(=O)c3ccccc3n(CCCN)c2c1C,-1.16 ± 5.8,-2.09 ± 2.2
CO[C@H]1C[C@H](O[C@@H]2/C(C)=C/C[C@@H]3C[C@@H](C[C@]4(CC[C@H](C)[C@@H](C5CCCCC5)O4)O3)OC(=O)[C@@H]3C=C(C)/C(=N/O)[C@H]4OC/C(=C\C=C\[C@@H]2C)[C@]43O)O[C@@H](C)[C@@H]1O,1.74 ± 2.8,7.86
CCCCCCOc1ccccc1C(N)=O,2.23 ± 6,-2.45 ± 5.9
CCCCOC(=O)c1ccc(N)cc1,0.209 ± 3.2,-0.923 ± 4.8
CC1(C)CCC(c2ccc(Cl)cc2)=C(CN2CCN(c3ccc(C(=O)NS(=O)(=O)c4ccc(N[C@H](CCN5CCOCC5)CSc5ccccc5)c(S(=O)(=O)C(F)(F)F)c4)cc3)CC2)C1,1.88 ± 0.2,0.418 ± 1.1
C[C@H](CO)N1C[C@H](C)[C@H](CN(C)C(=O)Nc2cc(F)ccc2F)Oc2cc(C#CC3CCCC3)ccc2S1(=O)=O,-4.22 ± 8.2,-7.92 ± 10
Cc1c(C(N)=O)cc([N+](=O)[O-])cc1[N+](=O)[O-],-1.42 ± 1.3,-5.88 ± 4.8
c1ccc(-c2[nH]ncc2-c2ccnc3ccccc23)nc1,3.91 ± 1.6,2.89 ± 0.88
CN1CCN(c2nc(C3=C(c4c[nH]c5ccccc45)C(=O)NC3=O)c3ccccc3n2)CC1,-0.749 ± 8,-0.579 ± 2.7
CCCCCCCCCc1ccc(OCCOCCOCCOCCOCCOCCOCCOCCOCCO)cc1,0.38 ± 2.7,1.22 ± 4.7
CC[C@]1(O)C[C@@H]2CN(CCc3c([nH]c4ccccc34)[C@@](C(=O)OC)(c3cc4c(cc3OC)N(C)[C@H]3[C@@](O)(C(=O)OC)[C@H](OC(C)=O)[C@]5(CC)C=CCN6CC[C@]43[C@@H]65)C2)C1,0.382 ± 2.1,-0.0313 ± 0.45
C=CCn1c(=O)c2cnc(Nc3ccc(N4CCN(C)CC4)cc3)nc2n1-c1cccc(C(C)(C)O)n1,-1.65 ± 1.5,2.8 ± 4.5
c1ccc(-c2nnc(N3CCOCC3)nc2-c2ccccc2)cc1,4.56 ± 7.8,5.71 ± 10
CCC1(C)CC(=O)NC1=O (centres undefined),-1.52 ± 5.1,-0.54 ± 4.2
COc1cccc(NC(=O)/C=C/c2ccc(Cl)cc2)c1,0.803 ± 1.7,1.65 ± 1.3
C[C@@H]1O[C@@H](Oc2cc(O)c3c(=O)c(O[C@@H]4O[C@@H](C)[C@H](O[C@@H]5O[C@@H](C)[C@H](O)[C@@H](O)[C@H]5O)[C@@H](O)[C@H]4O)c(-c4ccc(O)cc4)oc3c2)[C@H](O)[C@H](O)[C@H]1O,1.13 ± 3.9,-2.14 ± 0.8
O=C(c1ccc(/C=C/c2n[nH]c3ccccc23)cc1)N1CCNCC1,7.38,8.03 ± 2.3
NC(=O)C1CCCc2c1[nH]c1ccc(Cl)cc21 (centres undefined),-0.09 ± 0.36,3.07 ± 4.2

# Given with tabs: three of the compounds above
SMILES	cell shape (Z-score) (5 µM)	cell shape (Z-score) (10 µM)
CCC1(C)CC(=O)NC1=O (centres undefined)	-1.52 ± 5.1	-0.54 ± 4.2
COc1cccc(NC(=O)/C=C/c2ccc(Cl)cc2)c1	0.803 ± 1.7	1.65 ± 1.3
C[C@@H]1O[C@@H](Oc2cc(O)c3c(=O)c(O[C@@H]4O[C@@H](C)[C@H](O[C@@H]5O[C@@H](C)[C@H](O)[C@@H](O)[C@H]5O)[C@@H](O)[C@H]4O)c(-c4ccc(O)cc4)oc3c2)[C@H](O)[C@H](O)[C@H]1O	1.13 ± 3.9	-2.14 ± 0.8
